For part of these data: A negative result means that nothing was seen under these conditions. Construct, isoform or probe ends are uncertain for at least one entry.
Tests used:
CrtR [1] = assay: DNase I footprinting; details: 10-80 pmol CrtR in 50 ul; footprint: 25 mM HEPES-KOH pH 7.9, 0.5 mM EDTA, 50 mM KCl, 10% glycerol, 30 C 30 min (DNase I 1 min at 25 C); recombinant protein; residues 1-195; protein details: C-terminal 6xHis; label: 32P on one strand; probe letters rebuilt from the primers and the genome
CrtR [2] = assay: EMSA; details: 0-0.4 pmol CrtR, 1.6 pmol probe in 50 ul, poly(dI-dC); EMSA: 10 mM Tris-HCl pH 7.2, 50 mM NaCl, 1 mM EDTA, 10% glycerol, 0.5 ug poly(dI-dC), 30 C 30 min; recombinant protein; residues 1-195; protein details: C-terminal 6xHis; label: Cy5 at 5' end; probe letters rebuilt from the primers and the genome; part of a longer molecule

Sequence: AAAGTGTGAATTTGGGTCCATAAAAATAATGTGCCTACAAGAAATTTATAGTATCCCATGAGTTAATATTTTTAAAAATAAACTTTATCTGACTTTGTAGAAAAAGGTGATTACTATGCTGAATATGCAGGAACCAGATAA (double strand) [crtR-crtE footprint probes]
- binding result (CrtR [1]): binds

Sequence: AACCAACACCTCACCCCATAAGTTATCGAAAGGTGATTTTTGCCCAGGGTCTTGATTCACAACGCGCCTTGCTGTAGGAAAAACAGGCCCCTTTGTGACATCGGCGCAGTTGTTCAACTATAATGGAACGCTGATCGTGGACAAGAGTTAACCATGAGATTGATTCACCCCTTTAAGCCTCCAAAGAAGTAGTTGACTCAACGCATTTCGGCATTTA (double strand) [PsigA control probe]
- binding result (CrtR [2]): no binding

Sequence: TTCCGACATGCCAGAACGATCAACTAATTCACTTTTGGGATCACTAGTTTTCACGTCATAAATATTACGAAGTGGAGATTCTGCCGGATGGATTTTATCTGGTTCCTGCATATTCAGCATATTAATCACCTTTTTTTACAAAGTCAGATAAAGTTTGTTTTTAAAAATATTAACTCATGAGATAGTATAAATTTCCTGTAGGCACATTATTTTTATGAACCCGATTTCACACTTTCTGTACTTCATTAAGATAGAGCGCCATATACAACGATTGGGAATT (double strand) [PcrtR-PcrtE intergenic probe]
- binding result (CrtR [2]): binds

Source: article PMC6739363
